Structures can show the parent of a compound that is named as a salt.
Assay: Odor threshold of perfuming compounds in air
[1] = Table 6, perfuming compounds having a fruity note
[2] = Table 5, perfuming compounds having a green note
[3] = Table 10, perfuming compounds having a woody note
[4] = Table 8, perfuming compounds having a sweet note
[5] = Table 9, perfuming compounds having a gourmand note
[6] = perfuming compounds having a fruity note (Table 6)

CCC(C)C(=O)OCCc1ccccc1 (racemic) [(+−)-2-PHENYLETHYL 2-METHYLBUTANOATE]
Odor Threshold (μg/l air) [1]: 8.56E−03 μg/l air

CCCCCCOC(=O)CCCCC [HEXYL HEXANOATE]
Odor Threshold (μg/l air) [1]: 9.98E−02 μg/l air

CCCCC/C=C\C=C\C(=O)OCC [ethyl (2E,4Z)-2,4-decadienoate]
Odor Threshold [2]: 3.07E−04 μg/l air
Odor Threshold (μg/l air) [1]: 3.07E−04 μg/l air

COC1(C)CCC23CC1C(C)(C)C2CCC3C (racemic) [(+−)-8-methoxycedrane]
Odor Threshold (μg/l air) [3]: 2.09E−02 μg/l air

CCCCCCC1CCC(=O)O1 (racemic) [(+−)-4-DECANOLIDE]
Odor Threshold (μg/l air) [1]: 1.61E−04 μg/l air
Odor Threshold (μg/l air) [4]: 1.61E−04 μg/l air
Odor Threshold (μg/l air) [5]: 1.61E−04 μg/l air

CCCC(=O)OC(C)(C)Cc1ccccc1 [1,1-DIMETHYL-2-PHENYLETHYL BUTANOATE]
Odor Threshold (μg/l air) [1]: 2.68E−02 μg/l air
Odor Threshold (μg/l air) [4]: 2.68E−02 μg/l air
Odor Threshold (μg/l air) [5]: 2.68E−02 μg/l air

CCCC(S)CCOC(C)=O (racemic) [(+−)-3-mercaptohexyl acetate]
Odor Threshold [2]: 2.72E−06 μg/l air
Odor Threshold [6]: 2.72E−06 μg/l air

C=C(C)CC(C)OC(=O)C(C)C (racemic)
Odor Threshold (μg/l air) [4]: 2.26E−01 μg/l air
Odor Threshold (μg/l air) [5]: 2.26E−01 μg/l air
Odor Threshold [6]: 2.26E−01 μg/l air

C=CC1(C)CCCC(C)(C)O1 (racemic)
Odor Threshold [2]: 1.64E−01 μg/l air

CCC(C)C(=O)OC(C)C (racemic) [(+−)-ISOPROPYL 2-METHYLBUTANOATE]
Odor Threshold [6]: 8.42E−03 μg/l air

CCCCCC/C(C=O)=C\c1ccccc1 [(2E)-2-benzylideneoctanal]
Odor Threshold [2]: 1.91E−03 μg/l air
Odor Threshold (μg/l air) [1]: 1.91E−03 μg/l air

Cc1ccc(OC(=O)C(C)C)cc1 [4-METHYLPHENYL ISOBUTYRATE]
Odor Threshold [6]: 1.66E−05 μg/l air

CCCOC(C)OCCc1ccccc1 (stereo not drawn) [1-PHENYL-2-(1-PROPOXYETHOXY)ETHANE]
Odor Threshold [2]: 1.52E−03 μg/l air

CC(=O)OCCC1=CCC2CC1C2(C)C (stereo not drawn)
Odor Threshold (μg/l air) [3]: 1.10E−01 μg/l air

COc1ccc(C(C)=O)cc1 [1-(4-METHOXYPHENYL)-1-ETHANONE”]
Odor Threshold [2]: 1.41E−04 μg/l air

CC(=O)CCc1ccccc1 [4-PHENYL-2-BUTANONE]
Odor Threshold [2]: 2.22E−04 μg/l air
Odor Threshold [6]: 2.22E−04 μg/l air

Cc1ccc(OCC=O)cc1
Odor Threshold [2]: 6.46E−05 μg/l air

CCOC(C)OC1CCCCCCCCCCC1 (racemic) [(+−)-(1-ethoxyethoxy)cyclododecane]
Odor Threshold (μg/l air) [3]: 2.51E−02 μg/l air

CCCCCC1(C)CCC(C)(C)C1=O (racemic)
Odor Threshold [6]: 3.25E−02 μg/l air

CC(=O)OC(C)CC(C)(C)c1ccccc1 (racemic) [(+−)-1,3-DIMETHYL-3-PHENYLBUTYL ACETATE]
Odor Threshold [2]: 1.06E−02 μg/l air
Odor Threshold (μg/l air) [1]: 1.06E−02 μg/l air

CC(OC=O)C1CCCC(C)(C)C1 (stereo not drawn) [1-(3,3-DIMETHYL-1-CYCLOHEXYL)ETHYL FORMATE]
Odor Threshold [6]: 2.05E−01 μg/l air

COc1ccc2ccccc2c1 [2-METHOXYNAPHTHALENE]
Odor Threshold (μg/l air) [4]: 1.02E−05 μg/l air
Odor Threshold (μg/l air) [5]: 1.02E−05 μg/l air

CCCCCCCC(=O)OCC [ethyl octanoate]
Odor Threshold [2]: 5.30E−03 μg/l air

CC/C=C\CCOC(=O)c1ccccc1 [(3Z)-3-hexen-1-yl benzoate]
Odor Threshold [2]: 4.37E−02 μg/l air
Odor Threshold (μg/l air) [1]: 4.37E−02 μg/l air

CCCCOC(C)=O [BUTYL ACETATE]
Odor Threshold (μg/l air) [4]: 4.18E−01 μg/l air
Odor Threshold (μg/l air) [5]: 4.18E−01 μg/l air
Odor Threshold [6]: 4.18E−01 μg/l air

CCCCCCC=O [HEPTANAL]
Odor Threshold [2]: 2.03E−03 μg/l air

CCC(C)c1nccnc1OC (stereo not drawn) [PYRAZOBUTYLE]
Odor Threshold [2]: 7.20E−07 μg/l air

CCCCCC=O [hexanal]
Odor Threshold [2]: 1.76E−03 μg/l air

CCCCCC/C=C/C(=O)OC [methyl (2E)-2-nonenoate]
Odor Threshold [2]: 5.84E−02 μg/l air
Odor Threshold [6]: 5.84E−02 μg/l air

CC(=O)OC/C=C/c1ccccc1 [(E)-3-PHENYL-2-PROPENYL ACETATE]
Odor Threshold (μg/l air) [1]: 1.87E−04 μg/l air

CC(=O)C(C)O (racemic) [(+−)-3-HYDROXY-2-BUTANONE]
Odor Threshold [2]: 1.46E−02 μg/l air
Odor Threshold (μg/l air) [4]: 1.46E−02 μg/l air
Odor Threshold (μg/l air) [5]: 1.46E−02 μg/l air

COc1cc(C=O)ccc1O [4-hydroxy-3-methoxybenzaldehyde]
Odor Threshold (μg/l air) [4]: 6.75E−06 μg/l air
Odor Threshold (μg/l air) [5]: 6.75E−06 μg/l air

CC=CC(=O)C(C)CC (stereo not drawn) [5-METHYL-2-HEPTEN-4-ONE]
Odor Threshold (μg/l air) [4]: 7.62E−07 μg/l air

C[C@H]1[C@@H]2C[C@H](C[C@@]13C=CC(=O)CC3)C2(C)C
Odor Threshold (μg/l air) [1]: 6.32E−04 μg/l air
Odor Threshold (μg/l air) [3]: 6.32E−04 μg/l air

CCCCC[C@@H]1OC(=O)C[C@H]1C (racemic) [(+−)-TRANS-3-METHYL-4-NONANOLIDE]
Odor Threshold (μg/l air) [1]: 8.33E−04 μg/l air
Odor Threshold (μg/l air) [4]: 8.33E−04 μg/l air
Odor Threshold (μg/l air) [5]: 8.33E−04 μg/l air

CCCCCC1CCCC(=O)O1 (racemic) [(+−)-6-pentyltetrahydro-2H-pyran-2-one]
Odor Threshold (μg/l air) [1]: 3.72E−05 μg/l air
Odor Threshold (μg/l air) [4]: 3.72E−05 μg/l air
Odor Threshold (μg/l air) [5]: 3.72E−05 μg/l air

CCCC(S)CCOC (racemic) [(+−)-1-METHOXY-3-HEXANETHIOL]
Odor Threshold [2]: 1.92E−07 μg/l air

CC(C)C(=O)OCCOc1ccccc1 [2-phenoxyethyl 2-methylpropanoate]
Odor Threshold [2]: 3.01E−02 μg/l air
Odor Threshold (μg/l air) [1]: 3.01E−02 μg/l air

CC(=O)O[C@@H]1CC2CC[C@]1(C)C2(C)C
Odor Threshold (μg/l air) [3]: 4.46E−02 μg/l air

C/C=C/C(=O)C1=C(C)C=CCC1(C)C
Odor Threshold (μg/l air) [3]: 3.00E−06 μg/l air

CC1CC(C)(C)OC(Cc2ccccc2)O1 (stereo not drawn)
Odor Threshold [2]: 5.26E−02 μg/l air

Cc1ncsc1CCO [2-(4-METHYL-1,3-THIAZOL-5-YL)-1-ETHANOL]
Odor Threshold (μg/l air) [4]: 2.43E−04 μg/l air

CCCCCCCC1CCC(=O)O1 (racemic) [(+−)-5-heptyldihydro-2(3H)-furanone]
Odor Threshold (μg/l air) [1]: 3.16E−05 μg/l air
Odor Threshold (μg/l air) [4]: 3.16E−05 μg/l air
Odor Threshold (μg/l air) [5]: 3.16E−05 μg/l air

COC(=O)Cc1ccccc1 [METHYL PHENYLACETATE]
Odor Threshold (μg/l air) [4]: 3.21E−04 μg/l air
Odor Threshold (μg/l air) [5]: 3.21E−04 μg/l air
Odor Threshold [6]: 3.21E−04 μg/l air

CCOC(=O)C(C)CC (racemic) [(+−)-ethyl 2-methylbutanoate]
Odor Threshold [2]: 1.26E−04 μg/l air
Odor Threshold [6]: 1.26E−04 μg/l air

CC/C=C\CC/C=C/CO [(2E,6Z)-2,6-NONADIEN-1-OL]
Odor Threshold [2]: 3.22E−06 μg/l air

CCC/C=C/COC(C)=O [(E)-2-HEXENYL ACETATE]
Odor Threshold [2]: 2.08E−01 μg/l air
Odor Threshold [6]: 2.08E−01 μg/l air

CCCCCC1CCC(=O)O1 (racemic) [(+−)-4-NONANOLIDE]
Odor Threshold (μg/l air) [1]: 1.45E−04 μg/l air
Odor Threshold (μg/l air) [5]: 1.45E−04 μg/l air

O=COCc1ccccc1 [BENZYL FORMATE]
Odor Threshold [2]: 3.23E−01 μg/l air

CC(C)CC(=O)O [3-METHYLBUTANOIC ACID]
Odor Threshold (μg/l air) [3]: 2.23E−04 μg/l air
Odor Threshold [6]: 2.23E−04 μg/l air

CCCOC(=O)[C@H](C)OC(C)(C)CC [(−)-PROPYL (S)-2-(1,1-DIMETHYLPROPOXY)PROPANOATE]
Odor Threshold [6]: 4.98E−01 μg/l air

C/C=C(\C)C(=O)OCCCCCC [hexyl (2E)-2-methyl-2-butenoate]
Odor Threshold [2]: 1.16E−02 μg/l air
Odor Threshold (μg/l air) [4]: 1.16E−02 μg/l air
Odor Threshold [6]: 1.16E−02 μg/l air

O=C/C=C/c1ccccc1 [(E)-3-PHENYL-2-PROPENAL]
Odor Threshold (μg/l air) [3]: 1.36E−03 μg/l air

C[C@@H]1CC[C@H]2C(C)(C)[C@H]3C[C@@]12C[C@@H]1OC(C)(C)O[C@@]13C
Odor Threshold (μg/l air) [3]: 3.90E−06 μg/l air

CC1CCCC2(C)CCCCC12O (racemic)
Odor Threshold [2]: 5.32E−06 μg/l air

CCOC(=O)C(C)C [ETHYL ISOBUTYRATE]
Odor Threshold [6]: 1.14E−04 μg/l air

CC(C)(C)c1ccc2c(c1)OCC(=O)CO2 [7-(2-methyl-2-propanyl)-2H-1,5-benzodioxepin-3(4H)-one]
Odor Threshold [2]: 1.53E−04 μg/l air

C=C/C=C/C=C\CCCCC
Odor Threshold [2]: 3.76E−05 μg/l air

CCC(O)COC1CCCCC1C(C)(C)C (racemic)
Odor Threshold (μg/l air) [3]: 3.53E−02 μg/l air

CCCC(=NO)C(C)C [2-METHYL-3-HEXANONE OXIME]
Odor Threshold [2]: 4.81E−04 μg/l air

C/C=C(\C)C(=O)OCc1ccccc1 [BENZYL (E)-2-METHYL-2-BUTENOATE]
Odor Threshold (μg/l air) [1]: 3.07E−04 μg/l air
Odor Threshold (μg/l air) [3]: 3.07E−04 μg/l air

CC(C)(C)C1CCC(=O)CC1 [4-(2-methyl-2-propanyl)cyclohexanone]
Odor Threshold (μg/l air) [3]: 1.15E−01 μg/l air

CC1=CC[C@H](C(C)CC2CCCC2=O)CC1 (stereo partly drawn)
Odor Threshold (μg/l air) [1]: 1.66E−04 μg/l air
Odor Threshold (μg/l air) [4]: 1.66E−04 μg/l air
Odor Threshold (μg/l air) [5]: 1.66E−04 μg/l air

CCCCCC(=O)O [HEXANOIC ACID]
Odor Threshold [2]: 1.82E−02 μg/l air
Odor Threshold (μg/l air) [4]: 1.82E−02 μg/l air
Odor Threshold (μg/l air) [5]: 1.82E−02 μg/l air

COc1cc(C=O)ccc1OC(=O)C(C)C
Odor Threshold (μg/l air) [1]: 7.33E−05 μg/l air
Odor Threshold (μg/l air) [4]: 7.33E−05 μg/l air
Odor Threshold (μg/l air) [5]: 7.33E−05 μg/l air

CC(C)(C)C(=O)OCCc1ccccc1 [2-PHENYLETHYL PIVALATE]
Odor Threshold (μg/l air) [1]: 3.85E−02 μg/l air
Odor Threshold (μg/l air) [4]: 3.85E−02 μg/l air
Odor Threshold (μg/l air) [5]: 3.85E−02 μg/l air

CCC/C=C/CO [(E)-2-HEXEN-1-OL]
Odor Threshold [2]: 1.29E−01 μg/l air

CCOC(=O)C12CCCC1C1CCC2C1 (stereo not drawn)
Odor Threshold [2]: 6.87E−05 μg/l air
Odor Threshold (μg/l air) [1]: 6.87E−05 μg/l air

O=C1CCCCCCCCCCC(=O)OCCO1 [1,4-dioxacyclohexadecane-5,16-dione]
Odor Threshold (μg/l air) [4]: 7.05E−04 μg/l air

CC1(C)CC=C(CCC=O)CC1
Odor Threshold [2]: 2.06E−03 μg/l air

CC1CCC2C(C)(C)C3CC12CCC3(C)O (racemic)
Odor Threshold (μg/l air) [3]: 3.38E−02 μg/l air

C=C(C)[C@@H]1CC=C(CO)CC1
Odor Threshold [2]: 2.07E−02 μg/l air

Reference: US11427783B2, “Perfuming compositions” (Firmenich SA, priority 2016, dated 2022)
